This passage reports binding results from publication doi:10.1101/2025.10.11.681827.

The target in this assay is PUM2-HisLinker-Venus (Arabidopsis thaliana). Nature of the assay: affinity purification with mass spectrometry.

Results are given in words; binding and its absence hold for the method and conditions named. In cells and extracts the contact can be indirect. Here binding means that the protein was enriched with, or labelled near, the bait; the list need not be complete. A no says only that the protein was not detected with the bait.

B1: EVOLUTIONARILY CONSERVED C-TERMINAL REGION2 (ECT2) (protein, UniProt Q9LJE5 1-667)
chain: MATVAPPADQATDLLQKLSLDSPAKASEIPEPNKKTAVYQYGGVDVHGQVPSYDRSLTPMLPSDAADPSVCYVPNPYNPYQYYNVYGSGQEWTDYPAYTNPEGVDMNSGIYGENGTVVYPQGYGYAAYPYSPATSPAPQLGGEGQLYGAQQYQYPNYFPNSGPYASSVATPTQPDLSANKPAGVKTLPADSNNVASAAGITKGSNGSAPVKPTNQATLNTSSNLYGMGAPGGGLAAGYQDPRYAYEGYYAPVPWHDGSKYSDVQRPVSGSGVASSYSKSSTVPSSRNQNYRSNSHYTSVHQPSSVTGYGTAQGYYNRMYQNKLYGQYGSTGRSALGYGSSGYDSRTNGRGWAATDNKYRSWGRGNSYYYGNENNVDGLNELNRGPRAKGTKNQKGNLDDSLEVKEQTGESNVTEVGEADNTCVVPDREQYNKEDFPVDYANAMFFIIKSYSEDDVHKSIKYNVWASTPNGNKKLAAAYQEAQQKAGGCPIFLFFSVNASGQFVGLAEMTGPVDFNTNVEYWQQDKWTGSFPLKWHIVKDVPNSLLKHITLENNENKPVTNSRDTQEVKLEQGLKIVKIFKEHSSKTCILDDFSFYEVRQKTILEKKAKQTQKQVSEEKVTDEKKESATAESASKESPAAVQTSSDVKVAENGSVAKPVTGDVVANGC
In the case of B1, the binding result is “no binding”.
